# Data source: PubChem BioAssay AID1259308 (NCATS, 2017)
# Screen: 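Genes whose loss raises luciferase production in HEK293 cells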 (primary screen)
# System: human HEK293 embryonic kidney cells stably expressing firefly luciferase (HEK-CMV-Luc2-Hygro)
# Reagents: single siRNA against human genes, 0.8 pmol siRNA per well
# Time to read-out: 72 h
# Read-out: 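Reporter luminescence and viable-cell signal on separate replicate plates, given as percent of non-targeting control and median/MAD z-scores, plus per-cell luciferase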
# Reading the numbers: total luciferase, z-score and total luciferase, % of control: higher = more reporter protein produced; luciferase per cell, z-score: higher = more reporter output per viable cell; viable cells, % of control: higher = more viable cells
# Rule for the call: 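Active when the median/MAD z-score for overall luciferase is greater than 3; a gene was taken forward for validation with new siRNAs if at least two of its three siRNAs passed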
# Meaning of the calls: active = raised luciferase; inactive = no rise
# The deposit covers about 59,000 reagents; below is an unselected part. About 1,510 of them (2.6%) were called active. 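Calls use total luciferase alone and ignore viability, so some active siRNAs may act by altering cell number.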 Reagents against one gene are numbered here.
gene knocked down,reagent no.,"total luciferase, z-score","total luciferase, % of control","luciferase per cell, z-score","viable cells, % of control",outcome
MEP1A,1,-0.59,70.2,-1.27,110,inactive
MEP1A,2,-0.25,76.9,-0.644,102,inactive
MEP1A,3,1.68,115,0.74,106,inactive
STK32C,1,1.25,107,1.33,84.1,inactive
STK32C,2,0.399,89.8,-0.114,103,inactive
STK32C,3,1.81,118,1.2,96,inactive
DBF4B,1,-0.275,76.4,-0.966,110,inactive
DBF4B,2,1.13,104,0.98,90.1,inactive
DBF4B,3,0.226,86.4,-0.0147,96.9,inactive

Continued (3 carried over from the part before).
gene knocked down,reagent no.,"total luciferase, z-score","total luciferase, % of control","luciferase per cell, z-score","viable cells, % of control",outcome
DBF4B,1,-0.275,76.4,-0.966,110,inactive
DBF4B,2,1.13,104,0.98,90.1,inactive
DBF4B,3,0.226,86.4,-0.0147,96.9,inactive
OR4K15,1,-1.14,59.3,-1.26,92.3,inactive
OR4K15,2,-0.232,77.3,-0.721,104,inactive
OR4K15,3,1.75,117,0.509,114,inactive
KRT222,1,2.9,140,2.13,89.1,inactive
KRT222,2,-0.251,76.9,-0.586,100,inactive
KRT222,3,0.577,93.4,0.184,99.4,inactive
LY6D,1,2.62,134,1.38,104,inactive
LY6D,2,0.283,87.5,0.293,90.5,inactive
LY6D,3,-0.675,68.5,-0.818,94.9,inactive
PAIP1,1,1.18,105,1,90.4,inactive
PAIP1,2,-0.327,75.4,-0.885,106,inactive
PAIP1,3,0.205,86,0.488,84.5,inactive
MPHOSPH8,1,1.61,114,1.29,90.5,inactive
MPHOSPH8,2,1.5,112,1.73,79.2,inactive
MPHOSPH8,3,1.68,115,0.518,112,inactive
